B1: L2P22H10: FABP probe, substitutions M18I F55G A73M vs SEQ ID NO: 2 (protein, listed as Rattus norvegicus)
chain: AFDGTWKVDRNENYEKFIEKMGINVVKRKLGAHDNLKLTITQEGNKFTVKESSNGRNIDVVFELGVDFAYSLMDGTELTGTWTMEGNKLVGKFKRVDNGKELIAVREISGNELIQTYTYEGVEAKRIFKKE
modifications: PEPTIDE (1)...(131) wild-type rat intestinal fatty acid binding protein
B2: L2P8B8: FABP probe, substitution A73F vs SEQ ID NO: 2 (protein, listed as Rattus norvegicus)
chain: AFDGTWKVDRNENYEKFMEKMGINVVKRKLGAHDNLKLTITQEGNKFTVKESSNFRNIDVVFELGVDFAYSLFDGTELTGTWTMEGNKLVGKFKRVDNGKELIAVREISGNELIQTYTYEGVEAKRIFKKE
modifications: PEPTIDE (1)...(131) wild-type rat intestinal fatty acid binding protein
B3: L2P16A3: FABP probe, substitutions M18I G31L A73G vs SEQ ID NO: 2 (protein, listed as Rattus norvegicus)
chain: AFDGTWKVDRNENYEKFIEKMGINVVKRKLLAHDNLKLTITQEGNKFTVKESSNFRNIDVVFELGVDFAYSLGDGTELTGTWTMEGNKLVGKFKRVDNGKELIAVREISGNELIQTYTYEGVEAKRIFKKE
modifications: PEPTIDE (1)...(131) wild-type rat intestinal fatty acid binding protein
B4: L2P7F4: FABP probe, substitutions M18V G31V A73I vs SEQ ID NO: 2 (protein, listed as Rattus norvegicus)
chain: AFDGTWKVDRNENYEKFVEKMGINVVKRKLVAHDNLKLTITQEGNKFTVKESSNFRNIDVVFELGVDFAYSLIDGTELTGTWTMEGNKLVGKFKRVDNGKELIAVREISGNELIQTYTYEGVEAKRIFKKE
modifications: PEPTIDE (1)...(131) wild-type rat intestinal fatty acid binding protein
B5: L2P21G3: FABP probe, substitutions M18I G31M F55M vs SEQ ID NO: 2 (protein, listed as Rattus norvegicus)
chain: AFDGTWKVDRNENYEKFIEKMGINVVKRKLMAHDNLKLTITQEGNKFTVKESSNMRNIDVVFELGVDFAYSLADGTELTGTWTMEGNKLVGKFKRVDNGKELIAVREISGNELIQTYTYEGVEAKRIFKKE
modifications: PEPTIDE (1)...(131) wild-type rat intestinal fatty acid binding protein
B6: L2P23G7: FABP probe, substitutions M18V G31F F55L vs SEQ ID NO: 2 (protein, listed as Rattus norvegicus)
chain: AFDGTWKVDRNENYEKFVEKMGINVVKRKLFAHDNLKLTITQEGNKFTVKESSNLRNIDVVFELGVDFAYSLADGTELTGTWTMEGNKLVGKFKRVDNGKELIAVREISGNELIQTYTYEGVEAKRIFKKE
modifications: PEPTIDE (1)...(131) wild-type rat intestinal fatty acid binding protein
B7: L2P22E6: FABP probe, substitutions M18V G31A F55I A73W vs SEQ ID NO: 2 (protein, listed as Rattus norvegicus)
chain: AFDGTWKVDRNENYEKFVEKMGINVVKRKLAAHDNLKLTITQEGNKFTVKESSNIRNIDVVFELGVDFAYSLWDGTELTGTWTMEGNKLVGKFKRVDNGKELIAVREISGNELIQTYTYEGVEAKRIFKKE
modifications: PEPTIDE (1)...(131) wild-type rat intestinal fatty acid binding protein
B8: L2P18H12: FABP probe, substitutions M18I G31V A73G vs SEQ ID NO: 2 (protein, listed as Rattus norvegicus)
chain: AFDGTWKVDRNENYEKFIEKMGINVVKRKLVAHDNLKLTITQEGNKFTVKESSNFRNIDVVFELGVDFAYSLGDGTELTGTWTMEGNKLVGKFKRVDNGKELIAVREISGNELIQTYTYEGVEAKRIFKKE
modifications: PEPTIDE (1)...(131) wild-type rat intestinal fatty acid binding protein
B9: L2P8A5: FABP probe, substitutions M18V G31A F55W A73W vs SEQ ID NO: 2 (protein, listed as Rattus norvegicus)
chain: AFDGTWKVDRNENYEKFVEKMGINVVKRKLAAHDNLKLTITQEGNKFTVKESSNWRNIDVVFELGVDFAYSLWDGTELTGTWTMEGNKLVGKFKRVDNGKELIAVREISGNELIQTYTYEGVEAKRIFKKE
modifications: PEPTIDE (1)...(131) wild-type rat intestinal fatty acid binding protein
B10: L2P21C1: FABP probe, substitutions M18I G31Y A73V vs SEQ ID NO: 2 (protein, listed as Rattus norvegicus)
chain: AFDGTWKVDRNENYEKFIEKMGINVVKRKLYAHDNLKLTITQEGNKFTVKESSNFRNIDVVFELGVDFAYSLVDGTELTGTWTMEGNKLVGKFKRVDNGKELIAVREISGNELIQTYTYEGVEAKRIFKKE
modifications: PEPTIDE (1)...(131) wild-type rat intestinal fatty acid binding protein
B11: L2P23A4: FABP probe, substitutions M18V G31I F55L A73V vs SEQ ID NO: 2 (protein, listed as Rattus norvegicus)
chain: AFDGTWKVDRNENYEKFVEKMGINVVKRKLIAHDNLKLTITQEGNKFTVKESSNLRNIDVVFELGVDFAYSLVDGTELTGTWTMEGNKLVGKFKRVDNGKELIAVREISGNELIQTYTYEGVEAKRIFKKE
modifications: PEPTIDE (1)...(131) wild-type rat intestinal fatty acid binding protein
B12: L2P12C5: FABP probe, substitutions M18I G31I F55M A73I vs SEQ ID NO: 2 (protein, listed as Rattus norvegicus)
chain: AFDGTWKVDRNENYEKFIEKMGINVVKRKLIAHDNLKLTITQEGNKFTVKESSNMRNIDVVFELGVDFAYSLIDGTELTGTWTMEGNKLVGKFKRVDNGKELIAVREISGNELIQTYTYEGVEAKRIFKKE
modifications: PEPTIDE (1)...(131) wild-type rat intestinal fatty acid binding protein
B13: L2P8A6: FABP probe, substitutions M18I G31V F55V A73V vs SEQ ID NO: 2 (protein, listed as Rattus norvegicus)
chain: AFDGTWKVDRNENYEKFIEKMGINVVKRKLVAHDNLKLTITQEGNKFTVKESSNVRNIDVVFELGVDFAYSLVDGTELTGTWTMEGNKLVGKFKRVDNGKELIAVREISGNELIQTYTYEGVEAKRIFKKE
modifications: PEPTIDE (1)...(131) wild-type rat intestinal fatty acid binding protein
B14: L2P17H10: FABP probe, substitutions M18G G31F A73L vs SEQ ID NO: 2 (protein, listed as Rattus norvegicus)
chain: AFDGTWKVDRNENYEKFGEKMGINVVKRKLFAHDNLKLTITQEGNKFTVKESSNFRNIDVVFELGVDFAYSLLDGTELTGTWTMEGNKLVGKFKRVDNGKELIAVREISGNELIQTYTYEGVEAKRIFKKE
modifications: PEPTIDE (1)...(131) wild-type rat intestinal fatty acid binding protein
B15: L2P22G6: FABP probe, substitutions M18I G31Y A73G vs SEQ ID NO: 2 (protein, listed as Rattus norvegicus)
chain: AFDGTWKVDRNENYEKFIEKMGINVVKRKLYAHDNLKLTITQEGNKFTVKESSNFRNIDVVFELGVDFAYSLGDGTELTGTWTMEGNKLVGKFKRVDNGKELIAVREISGNELIQTYTYEGVEAKRIFKKE
modifications: PEPTIDE (1)...(131) wild-type rat intestinal fatty acid binding protein
B16: L2P11B4: FABP probe, substitutions M18V G31A A73W vs SEQ ID NO: 2 (protein, listed as Rattus norvegicus)
chain: AFDGTWKVDRNENYEKFVEKMGINVVKRKLAAHDNLKLTITQEGNKFTVKESSNFRNIDVVFELGVDFAYSLWDGTELTGTWTMEGNKLVGKFKRVDNGKELIAVREISGNELIQTYTYEGVEAKRIFKKE
modifications: PEPTIDE (1)...(131) wild-type rat intestinal fatty acid binding protein
B17: L2P2E11: FABP probe, substitutions M18I G31F vs SEQ ID NO: 2 (protein, listed as Rattus norvegicus)
chain: AFDGTWKVDRNENYEKFIEKMGINVVKRKLFAHDNLKLTITQEGNKFTVKESSNFRNIDVVFELGVDFAYSLADGTELTGTWTMEGNKLVGKFKRVDNGKELIAVREISGNELIQTYTYEGVEAKRIFKKE
modifications: PEPTIDE (1)...(131) wild-type rat intestinal fatty acid binding protein

Assay: Baseline fluorescence ratio Ro of probe in absence of analyte
Conditions: Table 5; baseline ratio, no analyte

**Q.** With B1 as the molecule, how does the Ro read?
**A.** 0.30

**Q.** Which Ro does the source give for B2 here?
**A.** 0.31

**Q.** Which Ro does the source give for B3 here?
**A.** 0.37

**Q.** With B4 as the molecule, how does the Ro read?
**A.** 0.32

**Q.** For B5, which Ro is on record?
**A.** 0.36

**Q.** With B6 as the molecule, how does the Ro read?
**A.** 0.30

**Q.** For B7, which Ro is on record?
**A.** 0.35

**Q.** With B8 as the molecule, how does the Ro read?
**A.** 0.36

**Q.** With B9 as the molecule, how does the Ro read?
**A.** 0.35

**Q.** For B10, which Ro is on record?
**A.** 0.36

**Q.** For B11, which Ro is on record?
**A.** 0.40

**Q.** For B12, which Ro is on record?
**A.** 0.39

**Q.** With B13 as the molecule, how does the Ro read?
**A.** 0.36

**Q.** With B14 as the molecule, how does the Ro read?
**A.** 0.23

**Q.** With B15 as the molecule, how does the Ro read?
**A.** 0.30

**Q.** Which Ro does the source give for B16 here?
**A.** 0.35

**Q.** For B17, which Ro is on record?
**A.** 0.31
